Results published in patent US12246068B2, “Enzymatically activatable peptide-redox modulator conjugates and use thereof” (BRANDEIS UNIVERSITY, priority 2017, dated 2025).
Part of at least one peptide drawing is inferred or uncertain, most often the ends. Some results were stated once for a whole list of compounds, not compound by compound. Where a SMILES comes first, the peptide text is derived from it. [ ]: non-standard residue; d: D form. The star is where a group is joined. X1 = O=C(CCC[P+](c1ccccc1)(c1ccccc1)c1ccccc1)*; d(pY) = N[C@H](Cc1ccc(OP(=O)(O)O)cc1)C(=O)O; pY = N[C@@H](Cc1ccc(OP(=O)(O)O)cc1)C(=O)O; NBD = O=[N+]([O-])c1ccc(*)c2nonc12; βAla = NCCC(=O)O

Tests used:
[1] = TEM of nanostructures before and after addition of ALP; type: physicochemical; settings: without ALP
ALP = ALP catalyzed dephosphorylation of the precursors; type: biochemical; settings: after 24 h, substrate 0.1 wt %, ALP 0.1 U/mL
Protocol: After obtaining all the precursors in Example 1, their behaviors were evaluated for EISA in vitro by using TEM and static light scattering (SLS) to examine the nanostructures formed before and after the addition of ALP into the solutions of the precursors. […] As a contrast, D-1P (50 μM) forms slightly more regular fibrous structures with diameter of 8±2 nm, which then interact with each other to form dense 2D/3D networks. […] After 24 h, the percentages of enzymatic dephosphorylation of D-1P and L-1P are about 90% and 80%, respectively. […] After being formed by dephosphorylation, L-1 and D-1 form different nanostructures. […] Similar to L-1, D-1 forms aggregated hollow colloids with a larger mean diameter ([…]±2 nm) and slightly thicker layers (thickness of 6±2 nm). L-2P or D-2P (50 μM) forms amorphous aggregates after dissolving in PBS buffer (pH=7.4) (FIG. 5). While the addition of ALP converts L-2P to L-2 to form uniform nanofibers with diameter of 9±2 nm, the enzymatic conversion of D-2P to D-2 results in nanoscale aggregates with diameter of 16±2 nm. […] As a charged, steric-hindered motif being connected to the peptide backbone via a relatively flexible linker, TPP disrupts intermolecular packing to disfavor the formation of long nanofibers, but it promotes interparticle interaction to favor polymorphic aggregates before and after enzymatic dephosphorylation. […]

[2] = Static light scattering (SLS) before and after adding ALP; type: physicochemical; settings: ALP 1 U/mL, 24 h, PBS pH 7.4
Saos2 cells [3] = assay: MTT cell viability assay, Saos2; type: cell-based, human; settings: for effect of Nec-1 on toxicity / rescue of Saos2 cells by zVAD-fmk: 50 μM, 48 h; for effect of Nec-1 on toxicity: co-incubated with Nec-1 (50 μM); for rescue of Saos2 cells by zVAD-fmk: co-incubated with zVAD-fmk (45 μM); for Saos2 cells killed: 100 μM
Protocol: Saos2, HeLa, HepG2, T98G, MCF-7 and HS-5 cells were purchased from American-type Culture Collection (ATCC, USA). Saos2 cells were cultured in Macyo's 5A medium supplemented with 15% v/v fetal bovine serum, 100 U/mL penicillin and 100 μg/mL streptomycin. HeLa, HepG2, T98G, MCF-7 cells were cultured in MEM Medium supplemented with 10% v/v fetal bovine serum, HS-5 cells were cultured in Dulbecco's Modified Eagle's medium (DMEM) supplemented with 10% v fetal bovine serum (FBS), 100 U/mL penicillin and 100 μg/mL streptomycin. All cells were cultured at 37° C. in a humidified atmosphere of 5% CO2.
For the MTT Assay, all cells were seeded in a 96-well plate with the density of 1*10^4 cells per-well (total medium volume of 100 μL). 24 hours post seeding, the solutions with a serial of concentrations (5 concentrations) of different precursors were added to each well. Cells without the treatment of the precursors were used as the control. At designated time (24/48/72 hours), 10 μL MTT solution (5 mg/mL) was added to each well and incubated at 37° C. for another 4 h, and then 100 μL of SDS-HCl solution was added to stop the reduction reaction and dissolve the purple formazan. The absorbance of each well at 595 nm was measured by a multimode microplate reader. The cytotoxicity assay was performed three times and the average value of the three measurements was taken.
To investigate the cellular response to all the precursors, an MTT (3-(4,5-dimethylthiazol-2-yl)-2,5-diphenyl tetrazolium bromide) assay (Gerlier et al., J. Immunol. Methods 94:57 (1986), which is hereby incorporated by reference in its entirety) was first used to examine the viability of human osteosarcoma cells (Saos2, which expresses high level ALP (Farley et al., Metabolism 40:664 (1991), which is hereby incorporated by reference in its entirety)) cultured with the precursors. As a control, the viability of normal human bone marrow stromal cells (HS5) that express low level of ALP on cell surface was also examined (Zhou et al., Chem 1:246 (2016), which is hereby incorporated by reference in its entirety). […] In the presence of exogenous ALP, L-1P (or D-1P) turns into L-1 (or D-1), which is innocuous to Saos2 cells at the concentrations up to 200 μM. […] To investigate the retention of L-1 (or D-1) in the Saos2 cells, the cells were incubated with L-1P (D-1P, 50 μM) for different times. […] On the contrary, the concentration of D-1 decreases little after 6 h incubation. Moreover, the intracellular concentration of D-1 is 3.5 fold of that of L-1 at 6 h incubation, but the ratio increases to 10 fold at 24 h incubation (FIG. 8B).
Three kinds of established ALP inhibitors were used: L-phenylalanine (L-Phe) (Borgers, M. J., Histochem. Cytochem. 21:812 (1973), which is hereby incorporated by reference in its entirety), an efficient uncompetitive inhibitor of placental alkaline phosphatase (PLAP) levamisole, a well-known uncompetitive inhibitor of tissue-nonspecific alkaline phosphatase (TNAP) (Borgers, M. J., Histochem. Cytochem. 21:812 (1973), which is hereby incorporated by reference in its entirety) and CinnGEL 2Me (Zhu et al., Cancer Res. 67:10129 (2007), which is hereby incorporated by reference in its entirety), an inhibitor of protein tyrosine phosphatase (PTP1B) that localizes at the cytoplasmic face of the endoplasmic reticulum. […] Moreover, the PTP1B inhibitor (i.e., CinnGEL 2Me) is unable to rescue the cells, supporting the mechanism in FIG. 1 that EISA on the cell surface is the key processes for converting L-1P and D-1P to L-1 and D-1, respectively. To further confirm the role of ALPs on cell surface, the precursors were incubated together with ALP, which serves as an exogenous enzyme. The addition of ALP almost eliminates the cytotoxicity of the precursors. […]

HeLa = type: cell-based, human; settings: read-out: IC50 against HeLa
HepG2 = type: cell-based, human; settings: read-out: IC50 against HepG2
T98G = type: cell-based; settings: read-out: IC50 against T98G
MCF7 = type: cell-based, human; settings: read-out: IC50 against MCF7
Saos2 cells [4] = assay: CLSM of uptake and intracellular localization in Saos2 cells; type: cell-based, human; settings: 50 μM, 4° C.
Saos2 cells [5] = assay: Actin staining (Alexa Fluor 633 phalloidin) of Saos2 cells; type: cell-based, human; settings: 100 μM, 1 h
Saos2 cells [6] = assay: PathScan apoptosis multitarget sandwich ELISA; type: cell-based, human; settings: 50 μM, time-dependent; increase over the first 3 h
Saos2 cells [7] = assay: Time-dependent Western blot of cytochrome c in the cytosolic fraction; type: cell-based, human; settings: 50 μM, over the first 6 h

SMILES	diameter of fibrous structures ([1]; 50 μM)	diameter of tiny nanoparticles ([1]; 50 μM)	percentage of enzymatic dephosphorylation (ALP)	increase of the SLS signal after addition of ALP ([2]; 25 μM)	increase of the SLS signal after addition of ALP ([2]; 50 μM)	increase of the SLS signal after addition of ALP ([2]; 100 μM)	increase of the SLS signal after addition of ALP ([2]; 200 μM)	effect of Nec-1 on toxicity (Saos2 cells [3])	rescue of Saos2 cells by zVAD-fmk (Saos2 cells [3])	Saos2 cells killed (Saos2 cells [3])	IC50 (HeLa)	IC50 (HepG2)	IC50 (T98G)	IC50 (MCF7)	cell entry at low temperature (Saos2 cells [4])	change of actin filaments (Saos2 cells [5])	expression level of active caspase3 (Saos2 cells [6])	Cyt c in the cytosol (Saos2 cells [7])	diameter of nanoparticles ([1]; 100 μM)
O=C(CCC[P+](c1ccccc1)(c1ccccc1)c1ccccc1)NCCCC[C@H](NC(=O)[C@H](Cc1ccc(OP(=O)(O)O)cc1)NC(=O)[C@H](Cc1ccccc1)NC(=O)[C@H](Cc1ccccc1)NC(=O)CCNc1ccc([N+](=O)[O-])c2nonc12)C(=O)O [L-1P] ({NBD-βAla}-FF[pY]K(X1)-OH)	7±2 nm	5±2 nm	~80%	120 fold	48 fold	18 fold	14 fold	reduce the toxicity	hardly rescues the cells	over 90%	> 200 µM	> 200 µM	> 200 µM	> 200 µM	hardly enters the cells	some of the actin filaments become disorganized	changes little	significantly increases	–
O=C(CCC[P+](c1ccccc1)(c1ccccc1)c1ccccc1)NCCCC[C@@H](NC(=O)[C@@H](Cc1ccc(OP(=O)(O)O)cc1)NC(=O)[C@@H](Cc1ccccc1)NC(=O)[C@@H](Cc1ccccc1)NC(=O)CCNc1ccc([N+](=O)[O-])c2nonc12)C(=O)O [D-1P] ({NBD-βAla}-[dF][dF][d(pY)][dK](X1)-OH)	8±2 nm	–	about 90%	43 fold	10 fold	8 fold	4 fold	reduce the toxicity	can rescue Saos2 cells	over 90%	> 200 µM	> 200 µM	> 200 µM	> 200 µM	hardly enters the cells	some of the actin filaments become disorganized	about 1.7 fold	significantly increases	25±2 nm
